One substance from paper PMC1868035 can be followed below.

Sequences of proteins named here, by UniProt entry; tags and fusion partners are left off.
UniProt Q13315: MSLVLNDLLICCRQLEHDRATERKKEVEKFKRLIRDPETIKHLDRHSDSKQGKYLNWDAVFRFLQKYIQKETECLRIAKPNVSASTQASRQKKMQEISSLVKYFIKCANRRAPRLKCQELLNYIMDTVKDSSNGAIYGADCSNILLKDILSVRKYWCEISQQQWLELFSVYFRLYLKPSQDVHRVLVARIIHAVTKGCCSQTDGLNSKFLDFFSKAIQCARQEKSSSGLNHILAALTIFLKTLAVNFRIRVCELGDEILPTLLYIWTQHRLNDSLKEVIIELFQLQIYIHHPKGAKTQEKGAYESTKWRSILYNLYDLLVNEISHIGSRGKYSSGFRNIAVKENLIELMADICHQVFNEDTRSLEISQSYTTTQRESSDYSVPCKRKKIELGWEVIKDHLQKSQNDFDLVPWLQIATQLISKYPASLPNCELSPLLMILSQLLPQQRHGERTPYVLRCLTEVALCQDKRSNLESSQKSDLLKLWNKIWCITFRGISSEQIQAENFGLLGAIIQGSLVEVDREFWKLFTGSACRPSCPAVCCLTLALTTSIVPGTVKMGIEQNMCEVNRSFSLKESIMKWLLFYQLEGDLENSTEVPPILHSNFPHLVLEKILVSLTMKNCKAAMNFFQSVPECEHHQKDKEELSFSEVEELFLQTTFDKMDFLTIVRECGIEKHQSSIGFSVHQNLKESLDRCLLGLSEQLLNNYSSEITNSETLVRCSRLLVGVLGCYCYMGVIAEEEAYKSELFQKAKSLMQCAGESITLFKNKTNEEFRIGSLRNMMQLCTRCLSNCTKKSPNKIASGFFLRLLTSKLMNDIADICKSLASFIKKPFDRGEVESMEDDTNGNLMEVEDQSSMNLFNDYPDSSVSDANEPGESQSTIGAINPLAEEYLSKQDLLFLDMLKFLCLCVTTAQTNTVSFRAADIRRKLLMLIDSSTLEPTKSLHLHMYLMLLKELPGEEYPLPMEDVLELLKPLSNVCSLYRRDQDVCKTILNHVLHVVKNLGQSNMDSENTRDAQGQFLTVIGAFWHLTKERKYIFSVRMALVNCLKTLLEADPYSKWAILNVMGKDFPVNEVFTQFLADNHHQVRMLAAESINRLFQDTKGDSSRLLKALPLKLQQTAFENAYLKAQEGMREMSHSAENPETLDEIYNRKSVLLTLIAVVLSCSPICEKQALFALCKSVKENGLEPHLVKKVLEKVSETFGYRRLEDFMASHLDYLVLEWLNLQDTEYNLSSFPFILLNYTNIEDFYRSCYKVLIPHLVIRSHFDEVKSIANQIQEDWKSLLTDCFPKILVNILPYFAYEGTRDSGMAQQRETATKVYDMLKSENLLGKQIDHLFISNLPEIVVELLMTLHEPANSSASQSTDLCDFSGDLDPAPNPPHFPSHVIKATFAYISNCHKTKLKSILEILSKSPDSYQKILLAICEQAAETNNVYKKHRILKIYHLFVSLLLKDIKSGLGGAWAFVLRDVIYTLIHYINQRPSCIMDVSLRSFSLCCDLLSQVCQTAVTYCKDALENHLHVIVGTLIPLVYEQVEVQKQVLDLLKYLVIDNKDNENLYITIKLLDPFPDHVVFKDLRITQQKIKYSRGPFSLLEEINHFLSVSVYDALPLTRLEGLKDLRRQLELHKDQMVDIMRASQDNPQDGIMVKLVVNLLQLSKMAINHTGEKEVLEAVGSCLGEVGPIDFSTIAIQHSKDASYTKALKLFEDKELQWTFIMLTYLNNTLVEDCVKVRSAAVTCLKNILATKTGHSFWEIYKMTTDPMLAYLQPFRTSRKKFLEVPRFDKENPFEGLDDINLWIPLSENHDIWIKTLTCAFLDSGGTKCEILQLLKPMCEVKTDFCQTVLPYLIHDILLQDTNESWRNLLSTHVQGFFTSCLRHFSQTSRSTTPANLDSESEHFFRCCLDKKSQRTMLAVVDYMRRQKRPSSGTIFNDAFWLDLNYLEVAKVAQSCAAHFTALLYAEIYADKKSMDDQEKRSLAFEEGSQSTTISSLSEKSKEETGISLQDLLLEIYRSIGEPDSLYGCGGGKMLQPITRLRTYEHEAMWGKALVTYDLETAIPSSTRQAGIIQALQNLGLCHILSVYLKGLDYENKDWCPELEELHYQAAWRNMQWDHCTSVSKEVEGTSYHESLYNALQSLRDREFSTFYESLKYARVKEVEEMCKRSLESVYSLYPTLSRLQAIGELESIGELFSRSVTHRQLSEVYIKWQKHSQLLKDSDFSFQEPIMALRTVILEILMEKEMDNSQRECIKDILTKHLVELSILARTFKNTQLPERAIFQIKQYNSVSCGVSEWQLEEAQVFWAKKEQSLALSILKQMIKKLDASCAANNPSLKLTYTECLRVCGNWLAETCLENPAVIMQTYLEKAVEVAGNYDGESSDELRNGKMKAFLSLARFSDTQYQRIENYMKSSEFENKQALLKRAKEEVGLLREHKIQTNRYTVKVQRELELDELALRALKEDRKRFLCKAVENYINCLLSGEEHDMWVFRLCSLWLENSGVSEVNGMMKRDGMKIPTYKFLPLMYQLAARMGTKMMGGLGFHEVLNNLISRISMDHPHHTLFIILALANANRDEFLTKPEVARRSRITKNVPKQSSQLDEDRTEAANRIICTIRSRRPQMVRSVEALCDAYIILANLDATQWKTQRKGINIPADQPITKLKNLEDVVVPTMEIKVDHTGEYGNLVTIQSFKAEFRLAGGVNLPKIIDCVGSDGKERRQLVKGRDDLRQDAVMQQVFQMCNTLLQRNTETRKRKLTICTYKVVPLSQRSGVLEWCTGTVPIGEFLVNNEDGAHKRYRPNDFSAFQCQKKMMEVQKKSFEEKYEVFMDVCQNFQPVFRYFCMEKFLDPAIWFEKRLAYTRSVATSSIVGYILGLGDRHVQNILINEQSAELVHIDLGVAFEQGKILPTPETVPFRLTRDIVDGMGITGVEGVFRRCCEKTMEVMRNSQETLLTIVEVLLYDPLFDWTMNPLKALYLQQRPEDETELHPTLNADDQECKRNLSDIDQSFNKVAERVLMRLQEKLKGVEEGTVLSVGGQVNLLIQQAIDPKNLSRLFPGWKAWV
UniProt P09874: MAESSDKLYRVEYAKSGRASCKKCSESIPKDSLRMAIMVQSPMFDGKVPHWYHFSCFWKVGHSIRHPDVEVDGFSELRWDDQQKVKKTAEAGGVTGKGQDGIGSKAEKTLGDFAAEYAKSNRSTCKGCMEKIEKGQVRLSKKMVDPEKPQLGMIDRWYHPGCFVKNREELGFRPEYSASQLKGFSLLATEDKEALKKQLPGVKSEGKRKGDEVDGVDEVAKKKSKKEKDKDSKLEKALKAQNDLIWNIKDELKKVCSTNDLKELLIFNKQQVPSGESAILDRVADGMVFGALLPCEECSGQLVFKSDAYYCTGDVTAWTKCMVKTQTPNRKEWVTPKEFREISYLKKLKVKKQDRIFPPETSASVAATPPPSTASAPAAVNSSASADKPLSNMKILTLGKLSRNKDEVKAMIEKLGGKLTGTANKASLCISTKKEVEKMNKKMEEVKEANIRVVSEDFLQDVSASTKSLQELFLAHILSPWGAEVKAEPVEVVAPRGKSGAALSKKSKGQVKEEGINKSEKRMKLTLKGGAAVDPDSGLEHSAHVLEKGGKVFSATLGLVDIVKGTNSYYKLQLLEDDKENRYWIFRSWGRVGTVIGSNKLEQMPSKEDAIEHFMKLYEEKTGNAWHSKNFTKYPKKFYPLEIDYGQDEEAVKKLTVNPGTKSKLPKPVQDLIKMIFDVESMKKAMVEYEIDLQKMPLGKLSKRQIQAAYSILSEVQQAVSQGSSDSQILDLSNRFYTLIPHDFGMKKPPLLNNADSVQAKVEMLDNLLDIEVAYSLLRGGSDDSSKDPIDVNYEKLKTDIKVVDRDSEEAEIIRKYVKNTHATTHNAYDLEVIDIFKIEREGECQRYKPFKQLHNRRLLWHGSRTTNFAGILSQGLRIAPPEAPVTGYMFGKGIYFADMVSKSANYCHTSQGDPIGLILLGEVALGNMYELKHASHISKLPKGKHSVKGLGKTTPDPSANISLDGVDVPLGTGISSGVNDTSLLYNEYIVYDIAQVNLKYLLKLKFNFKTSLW

The target in test [1] is ATM protein kinase (human (endogenous in G361)) (UniProt Q13315). As to the kind of experiment: co-IP; co-immunoprecipitation in the presence of ethidium bromide (not shown).
Test [2] has the same target. As to the kind of experiment: co-IP; ATM immunoprecipitated from G361 nuclear extracts with anti-ATM monoclonal SYR 10G3/1 on protein A-Sepharose, blot for PARP-1; cells untreated or treated with 10 Gy IR or 2 mM MNU for 30 min; HT144 (ATM deficient) as negative control.

No constants are given. Whether binding was seen depends on the method and setting. In cells and extracts the contact can be indirect. Some results given as binding are weak or reduced against the parent protein; the word gives no strength.

For “Poly(ADP-ribose) polymerase (PARP-1) (from UniProt P09874 1-1014)”, the binding entry in test [1] and in test [2] was “binds” in each case.
